Laboratory results as given in publication PMC3477016, “The intrinsic GTPase activity of the Gtr1 protein from Saccharomyces cerevisiae” (BMC Biochemistry, 2012).
Results are given in words; binding and its absence hold for the method and conditions named. Tags and fused reporters may be left off the sequences shown.

Target: His6-Gtr1 wild-type protein (S. cerevisiae full-length Gtr1) (S. cerevisiae) (UniProt Q00582)
Test: native gel or EMSA; native gel electrophoresis of the purified recombinant His6-Gtr1; the protein migrates at 36 kDa; both purified

binding: no binding
B1: His6-Gtr1 wild-type protein (S. cerevisiae full-length Gtr1) (protein, UniProt Q00582 1-310)
chain: MSSNNRKKLLLMGRSGSGKSSMRSIIFSNYSAFDTRRLGATIDVEHSHLRFLGNMTLNLWDCGGQDVFMENYFTKQKDHIFQMVQVLIHVFDVESTEVLKDIEIFAKALKQLRKYSPDAKIFVLLHKMDLVQLDKREELFQIMMKNLSETSSEFGFPNLIGFPTSIWDESLYKAWSQIVCSLIPNMSNHQSNLKKFKEIMNALEIILFERTTFLVICSSNGENSNENHDSSDNNNVLLDPKRFEKISNIMKNFKQSCTKLKSGFKTLILNNNIYVSELSSNMVCFIVLKDMNIPQELVLENIKKAKEFFQ
